Measurements reported in PubChem BioAssay AID1259299 (Sanger Institute, 2017).

- Assay: 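Kinases and colorectal mutated genes needed by colorectal cancer cells, with or without drugs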 (primary screen)
- Cell system: human CAR1 colorectal cancer cells
- Reagent: siRNA pool against human genes
- Conditions: anchor drug BYL719 1 µM, cetuximab 5 µg/ml or trametinib 10 nM, or DMSO vehicle alone; exposure length not given
- Measurement: 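Mean replicate viability versus non-targeting controls, turned into robust z-scores, plus drug synergy scores for BYL719, cetuximab and trametinib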
- Scale: viability robust z-score, knock-down alone and viability, knock-down alone (DMSO): higher = more viable cells; synergy score with BYL719 and synergy score with cetuximab and synergy score with trametinib: higher = stronger synergy with drug (synthetic lethal)
- Active means: 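a gene is called essential if its knock-down-alone viability z-score drops under -3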
- Calls: active = essential (knock-down alone); inactive = no change
This is an unselected part of 794 reagents tested. Of all reagents, 9 (1.1%) were called active. 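Calls rest on knock-down alone; synergy scores play no part in calls, and no gene passed the synergy cut.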 No viability above 1 is reported: the scale is capped. The record does not give: the amount of reagent, the time to read-out.

The opening 5 entries, ahead of the listing:
gene symbol,"viability robust z-score, knock-down alone","viability, knock-down alone (DMSO) (fraction of control)",synergy score with BYL719,synergy score with cetuximab,synergy score with trametinib,call
PRKG1,0.255,0.951,-0.138,-0.119,-0.0923,inactive
YES1,0.789,1,-0.0569,-0.00444,0.00691,inactive
MAP4K4,0.789,1,-0.161,-0.073,-0.058,inactive
CRKL,0.222,0.948,-0.104,-0.0827,-0.0218,inactive
PRKCA,-1.68,0.772,-0.164,-0.135,-0.121,inactive

The list itself, from the first entry:
gene symbol,"viability robust z-score, knock-down alone","viability, knock-down alone (DMSO) (fraction of control)",synergy score with BYL719,synergy score with cetuximab,synergy score with trametinib,call
PRKG1,0.255,0.951,-0.138,-0.119,-0.0923,inactive
YES1,0.789,1,-0.0569,-0.00444,0.00691,inactive
MAP4K4,0.789,1,-0.161,-0.073,-0.058,inactive
CRKL,0.222,0.948,-0.104,-0.0827,-0.0218,inactive
PRKCA,-1.68,0.772,-0.164,-0.135,-0.121,inactive
ITPKA,0.457,0.969,-0.159,-0.0656,-0.205,inactive
MPP1,0.789,1,-0.0935,-0.073,0.0358,inactive
TRIB1,-0.238,0.905,-0.155,-0.161,-0.0101,inactive
MYO3A,0.789,1,-0.0308,-0.0168,-0.0945,inactive
NRBP1,-0.558,0.876,-0.168,-0.0702,-0.112,inactive
MAPK11,-0.542,0.877,-0.144,-0.0721,-0.194,inactive
STK3,0.503,0.974,-0.142,-0.0309,-0.183,inactive
TSSK2,-0.327,0.897,-0.0437,-0.0711,-0.0509,inactive
LMTK3,0.789,1,-0.0447,-0.00717,0.0543,inactive
JAK1,0.789,1,-0.0608,-0.0644,-0.096,inactive
DYRK1B,-0.0226,0.925,-0.2,-0.0673,-0.00985,inactive
RPS6KA1,0.576,0.98,-0.13,-0.0912,0.0266,inactive
NIM1K,0.789,1,-0.203,-0.073,-0.179,inactive
KCNH8,-0.215,0.907,-0.109,0.0507,-0.0474,inactive
MAP2K3,0.523,0.975,-0.0502,0.0166,0.000365,inactive
TLK2,0.574,0.98,-0.211,-0.0915,-0.156,inactive
PFKFB2,-0.681,0.864,-0.0566,-0.127,-0.0658,inactive
PANK3,0.789,1,-0.173,-0.0588,-0.0754,inactive
PKM,-0.692,0.863,-0.13,-0.119,-0.146,inactive
CAMK1G,-1.87,0.755,-0.376,-0.3,-0.152,inactive
MAP3K14,0.53,0.976,-0.0212,0.196,0.0618,inactive
HCK,0.789,1,-0.0684,-0.0399,-0.132,inactive
PIK3C2A,-1.76,0.764,-0.147,-0.026,0.0902,inactive
PAPSS1,0.789,1,-0.122,-0.073,-0.177,inactive
DYRK4,-1.74,0.766,-0.296,-0.129,-0.182,inactive
IP6K1,0.789,1,-0.158,-0.073,-0.212,inactive
HIPK3,-0.701,0.862,-0.173,-0.131,-0.024,inactive
PIK3CA,0.789,1,-0.159,-0.0317,-0.059,inactive
GALK2,-2.76,0.672,-0.177,-0.3,-0.000624,inactive
TSKS,0.789,1,-0.206,-0.073,-0.0586,inactive
CHEK2,-0.0484,0.923,-0.117,-0.011,-0.204,inactive
ERBB4,-0.325,0.897,-0.13,-0.0321,-0.0821,inactive
STK35,-0.0851,0.919,-0.196,-0.109,-0.239,inactive
EIF2AK4,0.789,1,-0.17,-0.0373,-0.0842,inactive
NEK9,0.264,0.952,0.0169,-0.0517,-0.0183,inactive
SNRK,-2.24,0.72,-0.159,-0.0531,-0.0112,inactive
PRKACA,0.625,0.985,-0.126,-0.0871,-0.0321,inactive
NR4A2,-2.42,0.704,-0.0526,-0.0887,-0.0321,inactive
DSTYK,0.789,1,-0.206,-0.022,-0.157,inactive
NEK4,0.081,0.935,-0.121,-0.0437,-0.0924,inactive
KIT,-0.182,0.91,-0.126,-0.0659,-0.022,inactive
ADPGK,-0.887,0.845,-0.182,-0.156,-0.193,inactive
CRIM1,-0.00119,0.927,-0.235,0.0113,0.0442,inactive
TRPM7,0.789,1,-0.141,0.0472,-0.11,inactive
NTN4,-0.339,0.896,-0.227,-0.0872,-0.148,inactive
